Results deposited as PubChem BioAssay AID1259254 (NCATS, 2017).

- Screen: 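Genome-wide screen for genes that prevent DNA re-replication in cancer cells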 (primary screen)
- Cell system: human HCT116 colorectal cancer cells
- Knock-down reagent: single siRNA against human genes
- Duration: 3 days
- Read-out: 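Nuclei stained with Hoechst and imaged; cell-cycle phase assigned by DNA content; G2 share scaled per plate, non-targeting siRNA 0%, GMNN siRNA 100%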
- Scale: G2 robust z-score and G2 cells, % of GMNN control: higher = more G2 cells, more excess DNA replication; raw share of cells in G2: higher = larger share of cells with G2 DNA content
- Call rule: 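An siRNA counts as active if its G2 robust z-score lies at least 5 MADs above the screen median; here such calls match roughly 38% of GMNN control or more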
Here is an unselected part of about 59,000 reagents. Over the whole deposit, about 1,550 (2.6%) are marked active. 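G2 share is only a proxy for re-replication; each gene was hit by three separate siRNAs, and active genes were retested.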 The raw values are shown without normalisation. Entries without a mark were called inactive. The numbers tell different reagents against one gene apart. Not stated in the record: the amount of reagent.

Gene | reagent | G2 robust z-score | G2 cells, % of GMNN control | raw share of cells in G2 (%)
CDKN1A (cyclin dependent kinase inhibitor 1A) | 1 | -0.572 | -1.06 | 3.73
CDKN1A (cyclin dependent kinase inhibitor 1A) | 2 | 0.329 | 5.28 | 6.85
CDKN1A (cyclin dependent kinase inhibitor 1A) | 3 | 1.58 | 14.1 | 10.1
IFI35 (interferon induced protein 35) | 1 | -0.419 | 0.0177 | 3.47
IFI35 (interferon induced protein 35) | 2 | -0.241 | 1.27 | 5.44
IFI35 (interferon induced protein 35) | 3 | 1.58 | 14.1 | 8.21
GMPPB (GDP-mannose pyrophosphorylase B) | 1 | 1.68 | 14.8 | 12.9
GMPPB (GDP-mannose pyrophosphorylase B) | 2 | 0.907 | 9.35 | 7.29
GMPPB (GDP-mannose pyrophosphorylase B) | 3 | -0.867 | -3.13 | 2.96
ITGB2 (integrin subunit beta 2) | 1 | 0.389 | 5.7 | 6.29
ITGB2 (integrin subunit beta 2) | 2 | 1.25 | 11.7 | 9.31
ITGB2 (integrin subunit beta 2) | 3 | 2.93 | 23.6 | 14.7
USP36 (ubiquitin specific peptidase 36) | 1 | 0.812 | 8.68 | 8.59
USP36 (ubiquitin specific peptidase 36) | 2 | 0.529 | 6.69 | 7.28
USP36 (ubiquitin specific peptidase 36) | 3 | 0.724 | 8.06 | 6.92
HARS1 (histidyl-tRNA synthetase 1) | 1 | -1.21 | -5.53 | 3.58
HARS1 (histidyl-tRNA synthetase 1) | 2 | 0.975 | 9.83 | 7.8
HARS1 (histidyl-tRNA synthetase 1) | 3 | 0.553 | 6.86 | 7.54
DPYSL3 (dihydropyrimidinase like 3) | 1 | -0.949 | -3.71 | 3.64
DPYSL3 (dihydropyrimidinase like 3) | 2 | -0.761 | -2.39 | 3.27
DPYSL3 (dihydropyrimidinase like 3) | 3 | 2.34 | 19.4 | 12.1
TFAP2A (transcription factor AP-2 alpha) | 1 | -0.57 | -1.04 | 3.05
TFAP2A (transcription factor AP-2 alpha) | 2 | 0.231 | 4.59 | 7
TFAP2A (transcription factor AP-2 alpha) | 3 | -0.768 | -2.44 | 2.22
GJD4 (gap junction protein delta 4) | 1 | 6.18 (active) | 46.5 | 18
GJD4 (gap junction protein delta 4) | 2 | 6.15 (active) | 46.2 | 20.3
GJD4 (gap junction protein delta 4) | 3 | 3.53 | 27.8 | 12.6
C10orf90 (chromosome 10 open reading frame 90) | 1 | 0.748 | 8.23 | 7.39
C10orf90 (chromosome 10 open reading frame 90) | 2 | 0.465 | 6.24 | 5.19
C10orf90 (chromosome 10 open reading frame 90) | 3 | -0.771 | -2.45 | 1.1
C4orf54 (chromosome 4 open reading frame 54) | 1 | 0.22 | 4.51 | 5.29
C4orf54 (chromosome 4 open reading frame 54) | 2 | 0.583 | 7.07 | 5.78
C4orf54 (chromosome 4 open reading frame 54) | 3 | 0.639 | 7.47 | 5.54
CENPU (centromere protein U) | 1 | 3 | 24.1 | 14.4
CENPU (centromere protein U) | 2 | -0.255 | 1.17 | 4.82
CENPU (centromere protein U) | 3 | -1.15 | -5.15 | 0.968
TMEM150B (transmembrane protein 150B) | 1 | -1.2 | -5.46 | 1.65
TMEM150B (transmembrane protein 150B) | 2 | -0.147 | 1.94 | 3.79
TMEM150B (transmembrane protein 150B) | 3 | -0.345 | 0.54 | 3.43
CTNNBIP1 (catenin beta interacting protein 1) | 1 | -0.316 | 0.741 | 3.26
CTNNBIP1 (catenin beta interacting protein 1) | 2 | -0.0329 | 2.74 | 5.42
CTNNBIP1 (catenin beta interacting protein 1) | 3 | 0.0793 | 3.53 | 6.14
TMEM25 (transmembrane protein 25) | 1 | -0.298 | 0.87 | 3.2
TMEM25 (transmembrane protein 25) | 2 | 0.107 | 3.72 | 5.66
TMEM25 (transmembrane protein 25) | 3 | -0.228 | 1.36 | 3.43
GRINA | 1 | 0.976 | 9.84 | 8.81
GRINA | 2 | 2.72 | 22.1 | 11.5
GRINA | 3 | -0.322 | 0.704 | 5.53

6 entries already listed, sorted by “G2 robust z-score”, lowest first.
Gene | reagent | G2 robust z-score | G2 cells, % of GMNN control | raw share of cells in G2 (%)
GMPPB (GDP-mannose pyrophosphorylase B) | 3 | -0.867 | -3.13 | 2.96
ITGB2 (integrin subunit beta 2) | 1 | 0.389 | 5.7 | 6.29
GMPPB (GDP-mannose pyrophosphorylase B) | 2 | 0.907 | 9.35 | 7.29
ITGB2 (integrin subunit beta 2) | 2 | 1.25 | 11.7 | 9.31
IFI35 (interferon induced protein 35) | 3 | 1.58 | 14.1 | 8.21
GMPPB (GDP-mannose pyrophosphorylase B) | 1 | 1.68 | 14.8 | 12.9
